This note sets out measurements from the supplement of paper PMC4962491.

± gives the standard deviation of the averaged measurements. This is a selection; strong and weak results do not stand in their true shares. Most values lie within the scatter of the assay; repeated measurements hardly agree.

The test has as its system FaDu. The test can be described thus: mitochondrial oxygen consumption rate normalised to cell number, Z score over the library; higher = higher oxygen consumption (negative = OCR reduction). The note with it: treatment time 24 h, assay medium: 5 mM galactose, 5 mM pyruvate, 4 mM glutamine. The procedure: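 Primary screen: FaDu cells were incubated 24 h with Pharmakon 1600 / TDI oncology set compounds at 2 or 10 uM. Mitochondrial-specific OCR (basal minus 2 uM antimycin A) was measured on a Seahorse XF96 in assay medium with 5 mM galactose, 5 mM pyruvate and 4 mM glutamine, then corrected for Hoechst cell number and expressed as a Z score […]. Compounds that cut cell number by >66% were excluded. Two repeats.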

Take `O=C(O)P(=O)(O)O`: the “mitochondrial oxygen consumption rate normalised” value (2 µM) was found to be 0.718 ± 0.47. Consider `CCCCCCCCCCCCCCCC[N+](C)(C)CCN(Cc1ccc(OC)cc1)c1ncccn1`, for which the “mitochondrial oxygen consumption rate normalised” value (2 µM) was -0.911 ± 0.17 and the “mitochondrial oxygen consumption rate normalised” value (10 µM) was -2.13 ± 0.31. Regarding `Cc1nc(C)c(Cl)c(O)c1Cl`, the “mitochondrial oxygen consumption rate normalised” value (2 µM) is 0.979 ± 1.2. On the same count and under the same terms, next, `CCN(CC)CCCC(C)Nc1c2ccc(Cl)cc2nc2ccc(OC)cc12` (stereo unspecified): -2.83 ± 0.48; `CCN(CC)CCCC(C)Nc1c2ccc(Cl)cc2nc2ccc(OC)cc12` (stereo unspecified) [Quinacrine]: 0.315 ± 0.12. With `NS(=O)(=O)c1ccc(C(=O)O)cc1`, the “mitochondrial oxygen consumption rate normalised” value (2 µM) was 0.558 ± 0.47. On the same count and under the same terms, next, `CCOc1ccccc1C(N)=O`: -0.835 ± 0.23; `CO[C@H]1C[C@@H]2CC[C@@H](C)[C@@](O)(O2)C(=O)C(=O)N2CCCC[C@H]2C(=O)O[C@H]([C@H](C)C[C@@H]2CC[C@@H](O)[C@H](OC)C2)CC(=O)[C@H](C)/C=C(\C)[C@@H](O)[C@@H](OC)C(=O)[C@H](C)C[C@H](C)/C=C/C=C/C=C/1C` [Sirolimus (Rapamycin)]: -0.215 ± 0.18.

For the molecule `CO[C@H]1C[C@@H]2CC[C@@H](C)[C@@](O)(O2)C(=O)C(=O)N2CCCC[C@H]2C(=O)O[C@H]([C@H](C)C[C@@H]2CC[C@@H](O)[C@H](OC)C2)CC(=O)[C@H](C)/C=C(\C)[C@@H](O)[C@@H](OC)C(=O)[C@H](C)C[C@H](C)/C=C/C=C/C=C/1C`, where the note is “2 µM”, the “mitochondrial oxygen consumption rate normalised” value was -0.204 ± 1.2. As for `CNC[C@H](O)c1cccc(O)c1`, the “mitochondrial oxygen consumption rate normalised” value (2 µM) turned out to be 0.418 ± 0.42. The same measure, in the same setting: next, `CCN(CC)CCNC(=O)c1ccc(NC(C)=O)cc1`: 0.757 ± 0.096. Regarding `CN1C(=O)CC(C)(c2ccccc2)C1=O` (stereo unspecified), the “mitochondrial oxygen consumption rate normalised” value (2 µM) was found to be 0.499 ± 0.27 and the “mitochondrial oxygen consumption rate normalised” value (10 µM) is -0.314 ± 0.74. In the case of `CCOC(=O)[C@H](CCc1ccccc1)N[C@@H](C)C(=O)N1[C@H](C(=O)O)C[C@H]2CCCC[C@@H]21`, the “mitochondrial oxygen consumption rate normalised” value (2 µM) is -0.565 ± 0.58. With `CC(C)(CO)[C@@H](O)C(=O)NCCCO`, the “mitochondrial oxygen consumption rate normalised” value (2 µM) was found to be 0.215 ± 0.56. On the same count and under the same terms, the value for `CNC(=C[N+](=O)[O-])NCCSCc1ccc(CN(C)C)o1` was -0.766 ± 0.075. In the case of `COC(=O)[C@H]1[C@H]2C[C@@H]3c4[nH]c5cc(OC)ccc5c4CCN3C[C@H]2C[C@@H](OC(=O)c2cc(OC)c(OC)c(OC)c2)[C@@H]1OC`, the “mitochondrial oxygen consumption rate normalised” value (2 µM) is -0.792 ± 0.14. Same read-out and setting: the value for `CCCc1nc(C)c2c(O)nc(-c3cc(S(=O)(=O)N4CCN(CC)CC4)ccc3OCC)nn12` was -0.0767 ± 0.89. On to `N[C@H](Cc1ccccc1)C(=O)O`, for which the “mitochondrial oxygen consumption rate normalised” value (2 µM) was -0.763 ± 0.44. On the same count and under the same terms, next, `O=c1c(-c2ccc(O)cc2)coc2cc(O)cc(O)c12`: -1.9 ± 0.61.

On to `C[C@@H]1CC(=O)NN=C1c1ccc(NN=C(C#N)C#N)cc1`, for which the “mitochondrial oxygen consumption rate normalised” value (2 µM) is -0.534 ± 0.77. On the same count and under the same terms, next, `C[C@@H](c1ncncc1F)[C@](O)(Cn1cncn1)c1ccc(F)cc1F`: 0.501 ± 0.59. On the same count and under the same terms, the value for `O=C(Nc1cc(Cl)cc(Cl)c1O)c1c(O)c(Cl)cc(Cl)c1Cl` was 1.17 ± 1.3. On the same count and under the same terms, the value for `O=C(O)Cc1ccccc1Nc1c(Cl)cccc1Cl` was -0.355 ± 1.4; that for `CS(=O)(=O)c1ccc([C@@H](O)[C@@H](CO)NC(=O)C(Cl)Cl)cc1` was 0.476 ± 0.59; that for `CC(C)Cc1ccc([C@H](C)C(=O)O)cc1` was 0.0549 ± 0.3. On to `C[C@]12C=CC(=O)C=C1CC[C@@H]1[C@@H]2[C@@H](O)C[C@@]2(C)[C@H]1CC[C@]2(O)C(=O)CO`, for which the “mitochondrial oxygen consumption rate normalised” value (2 µM) is -0.0694 ± 0.7. Take `CCOc1cc(NC(C)=O)ccc1C(=O)OC`: the “mitochondrial oxygen consumption rate normalised” value was -0.364 ± 0.45 (2 µM) and -0.0275 ± 0.23 (10 µM). Turning to `O=c1[nH]cc(F)c(=O)[nH]1` [Fluorouracil  (5-FU)], the “mitochondrial oxygen consumption rate normalised” value (2 µM) is 1.39 ± 0.077. Still for that read-out and setting: the value for `O=c1[nH]cc(F)c(=O)[nH]1` was 0.278 ± 1.1. With `CC(=O)Oc1c(C)cccc1C(=O)O`, the “mitochondrial oxygen consumption rate normalised” value (2 µM) turned out to be 0.0311 ± 0.42. With `N=c1ccn2c(n1)O[C@H]1[C@H](O)[C@@H](CO)O[C@H]12`, the “mitochondrial oxygen consumption rate normalised” value (2 µM) came to 0.338 ± 0.043. Consider `OC[C@@H](O)[C@@H](O)CO`, for which the “mitochondrial oxygen consumption rate normalised” value (2 µM) is -0.27 ± 0.034.

As to `O=C1C(CC[S+]([O-])c2ccccc2)C(=O)N(c2ccccc2)N1c1ccccc1` (stereo unspecified), under “2 µM”, the “mitochondrial oxygen consumption rate normalised” value was -1.16 ± 0.2. For the molecule `CC(=O)OC/C=C(C)/C=C/C=C(C)/C=C/C1=C(C)CCCC1(C)C`, the “mitochondrial oxygen consumption rate normalised” value (2 µM) is -0.78 ± 0.26. Still for that read-out and setting: the value for `CCCCC(=O)OCC(=O)[C@]1(O)Cc2c(O)c3c(c(O)c2[C@@H](O[C@H]2C[C@H](NC(=O)C(F)(F)F)[C@H](O)[C@H](C)O2)C1)C(=O)c1c(OC)cccc1C3=O` [valrubicin] was 1.16 ± 0.57; that for `NS(=O)(=O)c1cc2c(cc1Cl)N=C(CSCc1ccccc1)NS2(=O)=O` was 0.0076 ± 0.69. Turning to `CC(C)[C@@H]1CC[C@@H](C)C[C@H]1O`, the “mitochondrial oxygen consumption rate normalised” value (2 µM) is -1.01 ± 0.56. For `O=C1CC[C@@H](C(=O)O)N1`, the “mitochondrial oxygen consumption rate normalised” value (2 µM) was 0.35 ± 0.99. With `C#C[C@]1(O)CC[C@H]2[C@@H]3CCC4=CC(=O)CC[C@@H]4[C@H]3CC[C@@]21C`, the “mitochondrial oxygen consumption rate normalised” value (2 µM) amounted to 0.403 ± 0.16. Turning to `CO[C@@]1(NC(=O)C(C(=O)O)c2ccc(O)cc2)C(=O)N2C(C(=O)O)=C(CSc3nnnn3C)CO[C@@H]21` (stereo partly specified), the “mitochondrial oxygen consumption rate normalised” value (2 µM) came to 0.109 ± 1. As for `Nc1ccc(S(=O)(=O)Nc2ncccn2)cc1`, under “2 µM”, the “mitochondrial oxygen consumption rate normalised” value was -0.52894 ± 0.00041. On the same count and under the same terms, next, `C#C[C@]1(OC(C)=O)CC[C@H]2[C@@H]3CCC4=C[C@@H](OC(C)=O)CC[C@@H]4[C@H]3CC[C@@]21C`: 0.254 ± 0.057. Turning to `CN(C)CCCN1c2ccccc2CCc2ccc(Cl)cc21`, for the setting “2 µM”, the “mitochondrial oxygen consumption rate normalised” value turned out to be 0.598 ± 0.049.

Consider `CO[C@@]1(NC(=O)C2SC(=C(C(N)=O)C(=O)O)S2)C(=O)N2C(C(=O)O)=C(CSc3nnnn3C)CS[C@@H]21` (stereo partly specified), for which the “mitochondrial oxygen consumption rate normalised” value (2 µM) is -0.428 ± 0.23. Same read-out and setting: next, `Cc1cc(NC(=O)C2=C(O)c3ccccc3S(=O)(=O)N2C)no1`: 0.468 ± 0.54; `Cc1cc(C(C)(C)CC(C)(C)C)ccc1OCCOCC[N+](C)(C)Cc1ccccc1`: -2.98 ± 0.25; `Nc1ccc(O)c(C(=O)O)c1`: 0.411 ± 2. `CCC(=O)O[C@H](CC(=O)O)C[N+](C)(C)C`: under “2 µM”, the “mitochondrial oxygen consumption rate normalised” value was -0.358 ± 0.49.

For the molecule `Clc1ccccc1CN1CCc2sccc2C1`, the “mitochondrial oxygen consumption rate normalised” value (2 µM) is -0.215 ± 0.37. On to `COC(=O)C1=C(C)NC(C)=C(C(=O)OC)C1c1ccccc1[N+](=O)[O-]`, for which, for the setting “2 µM”, the “mitochondrial oxygen consumption rate normalised” value was found to be 0.685 ± 0.12. Still for that read-out and setting: next, `Nc1ncnc2c1ncn2[C@@H]1O[C@H](COP(=O)(O)O)[C@@H](O)[C@H]1O`: 0.196 ± 0.41; `CCC(=O)O[C@H]1[C@H](O[C@@H]2[C@@H](C)[C@H](O[C@H]3C[C@@](C)(OC)[C@@H](O)[C@H](C)O3)[C@@H](C)C(=O)O[C@H](CC)[C@@](C)(O)[C@H](O)[C@@H](C)C(=O)[C@H](C)C[C@@]2(C)O)O[C@H](C)C[C@@H]1N(C)C`: 0.947 ± 0.042; `NC(=O)c1ncn([C@@H]2O[C@H](CO)[C@@H](O)[C@H]2O)c1N`: 0.0152 ± 0.32. As to `CC(c1cc2ccccc2s1)N(O)C(N)=O` (stereo unspecified), the “mitochondrial oxygen consumption rate normalised” value (2 µM) was -0.973 ± 0.61. As for `CC(=O)Oc1cc(C(C)C)c(OCCN(C)C)cc1C`, the “mitochondrial oxygen consumption rate normalised” value runs as follows: (2 µM) -1.14 ± 0.53; (10 µM) -0.219 ± 0.18. On to `O=C(O)c1cc(O)c2c(c1)[C@H]([C@H]1c3cc(C(=O)O)cc(O)c3C(=O)c3c(O[C@@H]4O[C@H](CO)[C@@H](O)[C@H](O)[C@H]4O)cccc31)c1cccc(O[C@@H]3O[C@H](CO)[C@@H](O)[C@H](O)[C@H]3O)c1C2=O`, for which the “mitochondrial oxygen consumption rate normalised” value is, setting by setting: (2 µM) 0.963 ± 1.3; (10 µM) 0.905 ± 0.018.
